# Test results published in patent US20220273823A1 (Ariel Scientific Innovations Ltd., priority 2019, published 2022).
# Experiment: Time-dependent absorption/fluorescence CLB cleavage profiles of XCy-CLB and OCTA-G-XCy-CLB in PB and cell medium
# Assay type: in vitro ADME
# Settings: for CLB release in CM faster compared to PB: CM vs PB; for acceleration of drug release by linkage of OCTA to the conjugate (factor): vs XCy-CLB
# Procedure: To estimate the rate of the CLB release, the time-dependent absorption and fluorescence spectra of XCy-CLB and OCTA-G-XCy-CLB were measured in PB and CM (see, FIGS. 5A-H). With respect to time, the absorption band at about 600 nm decreases, a new band at about 680 nm increases and a fluorescence band subsequently appears at ˜708 nm (λex=650 nm).
# Based of the time-dependent absorption and emission spectra, corresponding drug cleavage profiles were obtained (see, FIGS. 6A-B) and the drug release rates were quantified by half-lives (τ1/2). The cleavage profiles and half-lives obtained spectrophotometrically and spectrofluorometrically almost coincide. […] The release of CLB from OCTA-G-XCy-CLB in CM (τ1/2˜25 min) is […] faster than that in PB τ1/2 ˜2.5 h. Thus, the drug release for both XCy-CLB and OCTA-G-XCy-CLB in CM is much faster compared to PB. The obtained half-lives of the ester bond cleavage in these media were found in good agreement with some reported data. Linkage of OCTA to the conjugate accelerates the drug release by factor of 6 in PB and 1.3 in CM.
# Absorption spectra were recorded on a Jasco V-730 UV-Vis spectrophotometer and the fluorescence spectra were measured on Edinburgh FS5 spectrofluorometer. The absorption and fluorescence spectra were measured in 1-cm quartz cells at about 0.5 μM dye concentrations in PB 10 mmol buffer pH 7.4 at 25° C. and cell medium pH 7.4. Excitation wavelength was 650 nm. All the solutions were filtered in PVDF 0.45 μm filter before taking spectrum.
Structure (SMILES),CLB release in CM faster compared to PB,acceleration of drug release by linkage of OCTA to the conjugate (factor) (in CM),acceleration of drug release by linkage of OCTA to the conjugate (factor) (in PB)
C[C@@H](O)[C@H](NC(=O)[C@@H]1CSSC[C@H](NC(=O)[C@H](Cc2ccccc2)NC(=O)CCCNC(=O)CCCCC[N+]2=C(/C=C/C3=C4Oc5cc(OC(=O)CCCc6ccc(N(CCCl)CCCl)cc6)ccc5C=C4CCC3)C(C)(C)c3ccccc32)C(=O)N[C@@H](Cc2ccccc2)C(=O)N[C@@H](Cc2c[nH]c3ccccc23)C(=O)N[C@@H](CCCCN)C(=O)N[C@@H]([C@@H](C)O)C(=O)N1)C(N)=O [OCTA-G-XCy-CLB],4 fold,1.3,6
"CC1(C)C(/C=C/C2=C3Oc4cc(OC(=O)CCCc5ccc(N(CCCl)CCCl)cc5)ccc4C=C3CCC2)=[N+](CCCCCC(=O)O)c2ccccc21 [XCy-CLB, (E)-2-(2-(6-((4-(4-(bis(2-chloroethyl)amino)phenyl)butanoyl)oxy)-2,3-dihydro-1H-xanthen-4-yl)vinyl)-1-(5-carboxypentyl)-3,3-dimethyl-3H-indol-1-ium]",about 12 fold,–,–
